The target of this assay is dopamine D2S receptor (Homo sapiens, UniProt P14416). Description: Dopamine D2S receptor radioligand binding (HEK-293). Particulars: read-out: D2S Binding IC50. The protocol:
α1 Adrenergic and Dopamine D2 Receptors. Methods: Binding and functional assays for α1 adrenergic and dopamine D2 receptors were performed by Eurofins Cerep according to their methods.
Dopamine D2 Receptor. Binding at 10 μM. The binding assay evaluated the affinity of test articles for the dopamine D2 receptor in transfected human embryonic kidney (HEK)-293 cells. For determining the binding in the D2S receptor assay, test article was incubated with 0.3 nM [^3H] methylspiperone or 1 nM [^3H] 7-hydroxy-2-N,N-dipropylaminotetralin (7-OH-DPAT). [3H] Methylspiperone at 0.3 nM also was used as control ligand in the D2L binding assay. Cell membrane homogenates were incubated in duplicate at room temperature for 60 minutes with ligand in the absence or presence of test articles at 10 μM. After the incubation period, samples were filtered through glass fiber filters, the filters dried and then counted for radioactivity using a scintillation counter. Results are expressed as mean percent inhibition of control radioligand binding.
Binding IC50. To determine the binding IC50 in the D2 receptor assays, HEK-293 were tested as described above but with varying concentrations of test article. Compound A was tested at 0.01-30 μM in the D2S radioligand binding assay. Compound B was tested at 0.0003-10 μM in both the D2S and D2L binding assays. […]

Protein sequences, listed by entry. Tags and fused reporters are not part of them. Residues count along the entry.
UniProt P14416, 1-414 isoform 2: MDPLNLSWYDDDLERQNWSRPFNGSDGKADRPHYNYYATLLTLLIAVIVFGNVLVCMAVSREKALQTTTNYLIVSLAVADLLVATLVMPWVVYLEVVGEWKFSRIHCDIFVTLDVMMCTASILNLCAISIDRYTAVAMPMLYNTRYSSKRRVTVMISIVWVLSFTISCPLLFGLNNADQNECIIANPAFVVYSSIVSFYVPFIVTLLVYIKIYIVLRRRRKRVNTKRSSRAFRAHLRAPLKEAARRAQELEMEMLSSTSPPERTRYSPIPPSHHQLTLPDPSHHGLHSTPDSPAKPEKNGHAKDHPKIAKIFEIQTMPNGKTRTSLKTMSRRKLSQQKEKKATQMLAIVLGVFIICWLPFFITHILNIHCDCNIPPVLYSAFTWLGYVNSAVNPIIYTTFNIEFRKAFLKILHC

Certain results were filed several times, with different values. This list holds those alone. There may be further records. Results that share an entry do not match, cause unknown; they may come from other doses, times, organisms or constructs than stated.

As usually defined, the IC50 is the concentration that inhibits the measured activity by half. As to `O=C1CC[C@H](N2Cc3c(OCc4ccc(CN5CCN(c6ccc(F)cc6F)CC5)cc4)cccc3C2=O)C(=O)N1` [Compound B], the IC50 is 16 nM to 47 nM, 16 nM, 21 nM, 47 nM.

Values taken from patent US12029738B2, “Antiproliferative compounds and methods of use thereof” (Celgene Corporation, priority 2017, dated 2024).
